Source: PubChem BioAssay AID504764 (Drosophila RNAi Screening Center, 2011)

Test: 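Genome-wide screen for regulators of Notch-driven gene expression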 (primary screen)
Cells: Drosophila Kc167 cells
Reagent: long dsRNA against Drosophila genes
Timing: about 5 days (4 days dsRNA, then 24 h after transfection)
Challenge: transfection of constitutively active membrane-tethered Notch lacking the extracellular domain, read 24 h later
Measured: 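Light from a Notch-responsive E(spl)m3 luciferase reporter under active Notch, with control-promoter and no-Notch reporter wells to normalise; raw counts from paired wells a and b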
Direction: induced reporter light, run 1, well a and induced reporter light, run 1, well b: higher = more light from the Notch target reporter with active Notch; control promoter light, run 1, well a and control promoter light, run 1, well b: higher = more light from the viral control promoter (cell number, transfection, viability); uninduced reporter light, run 1, well a: higher = more light from the Notch target reporter without active Notch
Call rule: 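Wells with low control signal or poorly matching duplicates excluded; duplicates averaged; per source plate, z beyond ±2 for induced/control log2 ratio or beyond ±1.8 for induced/uninduced marks a hit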
Calls: active = modifier hit (raised or lowered Notch signal); inactive = not a hit
The deposit covers about 22,000 reagents; this is a random part of those that have a named target and a result. Of all reagents, 403 (1.9%) were called active. 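Unnormalised raw counts per well; ratio z-scores behind the hit calls and whether each hit raises or lowers signal are not deposited.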 Unmarked entries are inactive. The record does not give: the amount of reagent.

For snama [DRSC04049], the entry reads induced reporter light, run 1, well a = 1.53e5; induced reporter light, run 1, well b = 1.76e5; control promoter light, run 1, well a = 1.17e5; control promoter light, run 1, well b = 1.08e5; uninduced reporter light, run 1, well a = 9355.
For CG7601 [DRSC14131], the values are induced reporter light, run 1, well a = 2.07e5; induced reporter light, run 1, well b = 2.05e5; control promoter light, run 1, well a = 2.67e5; control promoter light, run 1, well b = 2.78e5; uninduced reporter light, run 1, well a = 14578.
Pus1 [DRSC15548] showed induced reporter light, run 1, well a = 1.78e5; induced reporter light, run 1, well b = 1.49e5; control promoter light, run 1, well a = 1.90e5; control promoter light, run 1, well b = 1.70e5; uninduced reporter light, run 1, well a = 10615.
Against CG33523 [DRSC09814], the values are induced reporter light, run 1, well a = 2.66e5; induced reporter light, run 1, well b = 2.39e5; control promoter light, run 1, well a = 2.48e5; control promoter light, run 1, well b = 2.73e5; uninduced reporter light, run 1, well a = 13555.
CG12608 [DRSC19472] gave induced reporter light, run 1, well a = 1.89e5; induced reporter light, run 1, well b = 2.10e5; control promoter light, run 1, well a = 2.71e5; control promoter light, run 1, well b = 2.68e5; uninduced reporter light, run 1, well a = 13385.
With knock-down of CG33286 [DRSC11691], the screen gave induced reporter light, run 1, well a = 1.56e5; induced reporter light, run 1, well b = 1.00e5; control promoter light, run 1, well a = 89260; control promoter light, run 1, well b = 86395; uninduced reporter light, run 1, well a = 14290.
For mms4 [DRSC06249], the entry reads induced reporter light, run 1, well a = 1.35e5; induced reporter light, run 1, well b = 1.61e5; control promoter light, run 1, well a = 1.80e5; control promoter light, run 1, well b = 1.94e5; uninduced reporter light, run 1, well a = 13815.

Part of the list above, set out differently:
{"predicted target": "Pus1", "DRSC id": "DRSC15548", "induced reporter light, run 1, well a": 1.78e5, "induced reporter light, run 1, well b": 1.49e5, "control promoter light, run 1, well a": 1.90e5, "control promoter light, run 1, well b": 1.70e5, "uninduced reporter light, run 1, well a": 10615}
{"predicted target": "CG33523", "DRSC id": "DRSC09814", "induced reporter light, run 1, well a": 2.66e5, "induced reporter light, run 1, well b": 2.39e5, "control promoter light, run 1, well a": 2.48e5, "control promoter light, run 1, well b": 2.73e5, "uninduced reporter light, run 1, well a": 13555}

Next reagents follow:
Against mRpS34 [DRSC09918] the deposit lists induced reporter light, run 1, well a = 2.17e5; induced reporter light, run 1, well b = 1.63e5; control promoter light, run 1, well a = 2.47e5; control promoter light, run 1, well b = 2.10e5; uninduced reporter light, run 1, well a = 9400.
For Sas10 [DRSC18355] the deposit lists induced reporter light, run 1, well a = 1.72e5; induced reporter light, run 1, well b = 2.20e5; control promoter light, run 1, well a = 4.20e5; control promoter light, run 1, well b = 3.15e5; uninduced reporter light, run 1, well a = 12760.
Against Vps2 [DRSC14886], the values are induced reporter light, run 1, well a = 75820 (active); induced reporter light, run 1, well b = 95170; control promoter light, run 1, well a = 2.38e5; control promoter light, run 1, well b = 1.99e5; uninduced reporter light, run 1, well a = 4420.
tacc [DRSC12019] showed induced reporter light, run 1, well a = 2.39e5; induced reporter light, run 1, well b = 2.57e5; control promoter light, run 1, well a = 3.55e5; control promoter light, run 1, well b = 2.54e5; uninduced reporter light, run 1, well a = 19455.
Depletion of tacc [DRSC12388] gave: induced reporter light, run 1, well a = 1.20e5; induced reporter light, run 1, well b = 1.15e5; control promoter light, run 1, well a = 69240; control promoter light, run 1, well b = 91655; uninduced reporter light, run 1, well a = 9300.
Knock-down of Ugt35D1 [DRSC15107] gave: induced reporter light, run 1, well a = 1.84e5; induced reporter light, run 1, well b = 1.85e5; control promoter light, run 1, well a = 3.06e5; control promoter light, run 1, well b = 3.82e5; uninduced reporter light, run 1, well a = 13892.
For jbug [DRSC03952], the values are induced reporter light, run 1, well a = 83365; induced reporter light, run 1, well b = 71580; control promoter light, run 1, well a = 95385; control promoter light, run 1, well b = 96985; uninduced reporter light, run 1, well a = 7710.
With knock-down of jbug [DRSC04114], the screen gave induced reporter light, run 1, well a = 2.05e5; induced reporter light, run 1, well b = 2.01e5; control promoter light, run 1, well a = 1.37e5; control promoter light, run 1, well b = 1.63e5; uninduced reporter light, run 1, well a = 12992.
Against jbug [DRSC04167], the values are induced reporter light, run 1, well a = 1.46e5; induced reporter light, run 1, well b = 1.77e5; control promoter light, run 1, well a = 1.84e5; control promoter light, run 1, well b = 1.23e5; uninduced reporter light, run 1, well a = 11860.
Against jbug [DRSC04388], the entry reads induced reporter light, run 1, well a = 2.42e5; induced reporter light, run 1, well b = 2.34e5; control promoter light, run 1, well a = 2.13e5; control promoter light, run 1, well b = 1.95e5; uninduced reporter light, run 1, well a = 18930.
With knock-down of aay [DRSC11320], the record shows induced reporter light, run 1, well a = 1.21e5; induced reporter light, run 1, well b = 99565; control promoter light, run 1, well a = 54635; control promoter light, run 1, well b = 25285; uninduced reporter light, run 1, well a = 7405.
